From publication PMC4528719, “Functional role of dimerization and CP190 interacting domains of CTCF protein in Drosophila melanogaster” (BMC Biology, 2015)

T1: full-length CP190 (yeast two-hybrid) (Drosophila) (UniProt Q24478)
T1 sequence: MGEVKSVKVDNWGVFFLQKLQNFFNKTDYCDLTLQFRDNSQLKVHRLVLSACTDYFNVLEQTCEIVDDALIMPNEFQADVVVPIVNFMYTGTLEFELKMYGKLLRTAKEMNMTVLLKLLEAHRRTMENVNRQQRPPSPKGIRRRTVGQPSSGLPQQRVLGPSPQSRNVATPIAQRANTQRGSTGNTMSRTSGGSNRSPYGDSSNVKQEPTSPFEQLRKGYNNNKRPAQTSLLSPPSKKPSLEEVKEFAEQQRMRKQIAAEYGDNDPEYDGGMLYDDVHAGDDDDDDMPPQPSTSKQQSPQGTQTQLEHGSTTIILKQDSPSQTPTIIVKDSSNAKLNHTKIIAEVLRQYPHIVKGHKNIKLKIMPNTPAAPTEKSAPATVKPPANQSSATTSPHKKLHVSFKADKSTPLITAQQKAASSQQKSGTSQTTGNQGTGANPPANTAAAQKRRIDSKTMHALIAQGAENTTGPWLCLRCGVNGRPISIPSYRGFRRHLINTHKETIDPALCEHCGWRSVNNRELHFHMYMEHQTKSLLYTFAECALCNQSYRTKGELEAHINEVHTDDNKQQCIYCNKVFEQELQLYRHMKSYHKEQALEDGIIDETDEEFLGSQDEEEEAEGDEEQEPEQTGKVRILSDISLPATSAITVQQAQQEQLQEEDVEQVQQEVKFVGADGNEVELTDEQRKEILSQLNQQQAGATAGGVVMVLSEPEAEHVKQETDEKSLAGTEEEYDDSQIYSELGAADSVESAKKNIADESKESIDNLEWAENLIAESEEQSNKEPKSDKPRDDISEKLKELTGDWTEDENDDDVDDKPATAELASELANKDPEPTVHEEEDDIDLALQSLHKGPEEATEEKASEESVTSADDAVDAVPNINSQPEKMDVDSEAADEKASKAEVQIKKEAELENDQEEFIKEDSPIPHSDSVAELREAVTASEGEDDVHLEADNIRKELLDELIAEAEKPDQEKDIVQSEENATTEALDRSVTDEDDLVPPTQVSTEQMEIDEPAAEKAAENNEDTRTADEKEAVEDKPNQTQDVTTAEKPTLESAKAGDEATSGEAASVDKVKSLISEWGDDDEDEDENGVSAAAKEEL

B1: full-length dCTCF fused to the GAL4 activation domain (protein, UniProt Q9VS55 1-818)
chain: MPRRTKKDEDPEDLQTFLNNFHKEIEGNSDEKVVNTILEAISAEAIDLDENGAEAGGSKPMEEAEADLDHAEEAEEEEEDDEDKYFIDDEGNCYIKTTPKKQKELQKKLKQAAAKPGKATRSVVSTATNKSINLRPAKSTPKATTSKPPPEPKAISVRPARAAAAKAKQSAMPPPPALVVKVPAPRGRPRKNPVIPKPEPMDLERELEELVDEPDISSMVTELSDYTVDEAAVEAATATLTPNEAEVYEFEDNATTEDENADKKDVDFVLSNKEVKLKTASSTSQNSNASGHKYSCPHCPYTASKKFLITRHSRSHDVEPSFKCSICERSFRSNVGLQNHINTHMGNKPHKCKLCESAFTTSGELVRHTRYKHTKEKPHKCTECTYASVELTKLRRHMTCHTGERPYQCPHCTYASQDMFKLKRHMVIHTGEKKYQCDICKSRFTQSNSLKAHKLIHSVVDKPVFQCNYCPTTCGRKADLRVHIKHMHTSDVPMTCRRCGQQLPDRYQYKLHVKSHEGEKCYSCKLCSYASVTQRHLASHMLIHLDEKPFHCDQCPQAFRQRQLLRRHMNLVHNEEYQPPEPREKLHKCPSCPREFTHKGNLMRHMETHDDSANAREKRRRLKLGRNVRLQKDGTVITLIKDQYVDMDRDQEENEEDDNPESYDLAEIEPENSEAEDADDDVETIVSDPIRQRIKPAPIIINKQARLAASEKQPMIINQRLRSQRGTKTFHIKEEPDNSDFTVEWQGDDGEVMVVELVNGDEEVLVKHEPSANSKISAKNCFGFEDDDDYEEYGDGENEVDGASQEFLQLMDMIEQDS

What was measured:
[1] = target: T1, full-length CP190 (yeast two-hybrid) (Drosophila); assay: two-hybrid; yeast; dCTCF or its parts fused to GAL4 AD, CP190 or its sub-fragments fused to GAL4 DNA BD (Fig. 3b)
[2] = target: CP190 BTB domain fused to the GAL4 DNA BD (Drosophila) (UniProt Q24478); assay: as above

Row | Molecule | binding [1] | binding [2]
1 | dCTCF CTD alone fused to the GAL4 activation domain (Drosophila melanogaster) (domain or fragment) | binds | 
2 | dCTCF zinc fingers plus the CTD fused to the GAL4 activation domain (Drosophila melanogaster) (domain or fragment) | binds | 
3 | dCTCF NTD fused to the GAL4 activation domain (Drosophila melanogaster) (domain or fragment) | no binding | 
4 | B1 |  | binds

Results are given in words; binding and its absence hold for the method and conditions named. Binding can be weak; no strength is given. For some of these results: Tags and fused reporters may be left off the sequences shown.
